# This is one part of the list.
# By UniProt entry, the sequences of proteins in these tests, tags left out.
# UniProt Q0JBA9, entry or part of it: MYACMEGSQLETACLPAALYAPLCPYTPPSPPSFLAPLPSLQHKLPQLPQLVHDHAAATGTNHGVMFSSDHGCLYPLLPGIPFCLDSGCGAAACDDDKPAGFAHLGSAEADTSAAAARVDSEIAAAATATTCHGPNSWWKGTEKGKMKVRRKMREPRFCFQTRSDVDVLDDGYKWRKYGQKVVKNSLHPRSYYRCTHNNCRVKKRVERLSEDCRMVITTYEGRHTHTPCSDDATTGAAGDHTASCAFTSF
# Biological target: OsWRKY34 (Oryza sativa, UniProt Q0JBA9 1-250)
# Experiment: protein-binding microarray (RPBM); PBS, 2% BSA, 51.3 ng/ul salmon testes DNA, 50 uM zinc acetate, 200 nM TF, 25 C, 1 h; high values mean tight binding
# Conditions: protein: recombinant; tags: N-terminal polyhistidine and DsRed monomer fusion (pET32a); label: CyDye5-dUTP incorporated in the synthesized complementary strand; 3' TTTTT single-stranded linker to array surface; dsDNA, one strand shown
# How it was run: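 An Axon 4000B scanner gave the binding signal as per-feature fluorescence intensity in arbitrary units. This followed washing of a custom Agilent array that had been incubated for 1 h at 25 °C with 200 nM protein in PBS, 2% BSA, salmon testes DNA and 50 µM zinc acetate. The proteins were transcription factors fused at the N-terminus to polyhistidine and DsRed, expressed in E. coli BL21-CodonPlus and purified on Ni–NTA.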
row,Sequence,binding signal
1,GAGTGTGAGTGTGGTCTGATTTTTTCTTGCAGAATCATCACGGAGTCACCTAGTGCAG,8190 fluorescence intensity (a.u.)
2,GGGAGGAGGGAGAGGAGGAGAGGAGGGAGGAGGGAGAGGACGGAGTCACCTAGTGCAG,9610 fluorescence intensity (a.u.)
3,ATATAAGTGTAGTTCTGGGTTTCATATTTTTTTTCAAATACGGAGTCACCTAGTGCAG,8130 fluorescence intensity (a.u.)
4,ACTACTACTACCCTTGCTCTGTCTGATCCAAGTCCAGGCACGGAGTCACCTAGTGCAG,8030 fluorescence intensity (a.u.)
5,CGTCCGCCGCAGATCCGATCGGTAGCAATAGCACATATCACGGAGTCACCTAGTGCAG,8500 fluorescence intensity (a.u.)
6,GGCCGTCAAATTAACCTCGATCGCCGCCAGCCAGCGACGTCGGAGTCACCTAGTGCAG,8180 fluorescence intensity (a.u.)
7,GGGGTTGGGTTGAGATTCCCCAGGCGCCCGCGGCGGCCTCCGGAGTCACCTAGTGCAG,8370 fluorescence intensity (a.u.)
8,AAATCACGTCATTGTATTGTGTTTTGAAGCTTGTTTGATCCGGAGTCACCTAGTGCAG,8480 fluorescence intensity (a.u.)
9,TTTCATTATGGCTTAACAAAGTATAATATTCCACCGCAAACGGAGTCACCTAGTGCAG,8192 fluorescence intensity (a.u.)
10,TTTGGTTAATGTTTACTCCTAATTTCTTAATTTCTAGTTTCGGAGTCACCTAGTGCAG,8500 fluorescence intensity (a.u.)
11,ATCTATCTCTATCCCTCTCTATATATTTTCTCCCTAGAACCGGAGTCACCTAGTGCAG,8350 fluorescence intensity (a.u.)
12,AAACAATGACCTTACACTCTTCGTAACCAATTTATCAGCTCGGAGTCACCTAGTGCAG,8100 fluorescence intensity (a.u.)
13,GCGCGGCGGCGGAGGCGGGGACGGCAAGGACGGGGCGCCCCGGAGTCACCTAGTGCAG,9760 fluorescence intensity (a.u.)
14,TATCGATTTCTCCTTCTTGCCATCCAATATGATTTTAGATCGGAGTCACCTAGTGCAG,10300 fluorescence intensity (a.u.)
15,AATCCCGAAGACTTGGATAGAGTGGTTTTGCGTTGGTTGTCGGAGTCACCTAGTGCAG,8540 fluorescence intensity (a.u.)
16,ACACTTCCTTTTTTGTTTTTCTCTTTTCCTTTCACGTTGTCGGAGTCACCTAGTGCAG,8880 fluorescence intensity (a.u.)
17,CAAGGCTCGTTCAAAGTGTTGTTAAGTTGTTAGTCAAGCACGGAGTCACCTAGTGCAG,8840 fluorescence intensity (a.u.)
18,GATATGTTCATACCAGTACTTACCAATTTTAGCGATCTTGCGGAGTCACCTAGTGCAG,10300 fluorescence intensity (a.u.)
19,GGCAGCTTATGGTACAGGGGTACATCATCACAGATTTCTTCGGAGTCACCTAGTGCAG,9770 fluorescence intensity (a.u.)
20,GTCCTTAAATATTTGACGTCGTTGACTTTTTTTAAAATATCGGAGTCACCTAGTGCAG,20900 fluorescence intensity (a.u.)
21,TTCCACCTCACCGTTGCTATATGTCTGTAGAGAAATGTATCGGAGTCACCTAGTGCAG,8260 fluorescence intensity (a.u.)
22,AGTAATTTGACTTTTTCCTTAATCAAACTTCTTTAAGTTTCGGAGTCACCTAGTGCAG,10600 fluorescence intensity (a.u.)
23,CCACCGCTGTCACTCACTCTGTTGTCGCCACCCAACGAGGCGGAGTCACCTAGTGCAG,8390 fluorescence intensity (a.u.)
24,TAGAATCCACTCCCTACGACCATCGGTTTCTGACTTTCACCGGAGTCACCTAGTGCAG,9230 fluorescence intensity (a.u.)
25,AGGGTTTACGGGTTTTTTTGGCGGCGGCGGCGGCGGTCTCCGGAGTCACCTAGTGCAG,10700 fluorescence intensity (a.u.)
26,GTGGTGGTATAATTTTCTTTGTTTTCCTAATTACGACCTCCGGAGTCACCTAGTGCAG,8490 fluorescence intensity (a.u.)
27,GCCCGAGCTTTTTTTCCACCCCTAGCGGCGATGCGCCAATCGGAGTCACCTAGTGCAG,8850 fluorescence intensity (a.u.)

# Reformatted: results already given.
row	Sequence	binding signal
1	GAGTGTGAGTGTGGTCTGATTTTTTCTTGCAGAATCATCACGGAGTCACCTAGTGCAG	8190 fluorescence intensity (a.u.)
2	GGGAGGAGGGAGAGGAGGAGAGGAGGGAGGAGGGAGAGGACGGAGTCACCTAGTGCAG	9610 fluorescence intensity (a.u.)
3	ATATAAGTGTAGTTCTGGGTTTCATATTTTTTTTCAAATACGGAGTCACCTAGTGCAG	8130 fluorescence intensity (a.u.)
5	CGTCCGCCGCAGATCCGATCGGTAGCAATAGCACATATCACGGAGTCACCTAGTGCAG	8500 fluorescence intensity (a.u.)
6	GGCCGTCAAATTAACCTCGATCGCCGCCAGCCAGCGACGTCGGAGTCACCTAGTGCAG	8180 fluorescence intensity (a.u.)
7	GGGGTTGGGTTGAGATTCCCCAGGCGCCCGCGGCGGCCTCCGGAGTCACCTAGTGCAG	8370 fluorescence intensity (a.u.)
11	ATCTATCTCTATCCCTCTCTATATATTTTCTCCCTAGAACCGGAGTCACCTAGTGCAG	8350 fluorescence intensity (a.u.)
12	AAACAATGACCTTACACTCTTCGTAACCAATTTATCAGCTCGGAGTCACCTAGTGCAG	8100 fluorescence intensity (a.u.)
14	TATCGATTTCTCCTTCTTGCCATCCAATATGATTTTAGATCGGAGTCACCTAGTGCAG	10300 fluorescence intensity (a.u.)
19	GGCAGCTTATGGTACAGGGGTACATCATCACAGATTTCTTCGGAGTCACCTAGTGCAG	9770 fluorescence intensity (a.u.)
21	TTCCACCTCACCGTTGCTATATGTCTGTAGAGAAATGTATCGGAGTCACCTAGTGCAG	8260 fluorescence intensity (a.u.)
23	CCACCGCTGTCACTCACTCTGTTGTCGCCACCCAACGAGGCGGAGTCACCTAGTGCAG	8390 fluorescence intensity (a.u.)
24	TAGAATCCACTCCCTACGACCATCGGTTTCTGACTTTCACCGGAGTCACCTAGTGCAG	9230 fluorescence intensity (a.u.)

# Remaining list, next part.

row,Sequence,binding signal
1,ACGCTACATTCAGTTTCCATTCTGAAATCTTTTTCGGGCCCGGAGTCACCTAGTGCAG,9940 fluorescence intensity (a.u.)
2,ATATCTCGATCTTACTATTCGTTTCACATTTTCCGATCCTCGGAGTCACCTAGTGCAG,10000 fluorescence intensity (a.u.)
3,ATTGACTTTTTCTTACACTGTTTAACCATTCGTCTTATTCCGGAGTCACCTAGTGCAG,14000 fluorescence intensity (a.u.)
4,GCCAGCATCATCACACAAGCACACTCGTCCGTTTTTCTAGCGGAGTCACCTAGTGCAG,10900 fluorescence intensity (a.u.)
5,AGTCATTTGTGCCCGCACCTATCTAGTGTTCTGTAGTAGTCGGAGTCACCTAGTGCAG,9200 fluorescence intensity (a.u.)
6,AACGGCTACACAACTCCACTCCAAACCTAACTCCTAGAGCCGGAGTCACCTAGTGCAG,9660 fluorescence intensity (a.u.)
7,GCGGTTGTCATTTTCTCCAGCACTCGACTTCCCTTTCTCCCGGAGTCACCTAGTGCAG,8630 fluorescence intensity (a.u.)
8,GGTAAAACTATACTTTCATAGTTGTTTCTTTCTCCAATTCCGGAGTCACCTAGTGCAG,8120 fluorescence intensity (a.u.)
9,ACTAATTACACGTCAGCTTGCTTAGCCGCGTCGCGCTGCTCGGAGTCACCTAGTGCAG,9340 fluorescence intensity (a.u.)
10,CTGGGCCCTCGTGCTGCTCTTCTCATGTCACCACCGCCGGCGGAGTCACCTAGTGCAG,9810 fluorescence intensity (a.u.)
11,AAATTTTCCTTTTGTCTCTCTATACATAAATATCTAATTTCGGAGTCACCTAGTGCAG,10200 fluorescence intensity (a.u.)
12,TAGTATTTAAAAGTGGTGCTCATAGGGGTAGGGTTTGCTGCGGAGTCACCTAGTGCAG,8520 fluorescence intensity (a.u.)
13,ACTCTGTCTCACTCTTCTTCTCTCACTGGTCGGCGGCGGCCGGAGTCACCTAGTGCAG,8430 fluorescence intensity (a.u.)
14,TATCATATGTCTAAAACATGTTCGATGCTCGTTTGTCACGCGGAGTCACCTAGTGCAG,8140 fluorescence intensity (a.u.)
15,ATCGTACCAAACGTTTCCTCACATGCATACTGAACTTTGACGGAGTCACCTAGTGCAG,8880 fluorescence intensity (a.u.)
16,TTTGCCTCAATGTCTGTTTTTGACTTTCTTACCATGCACTCGGAGTCACCTAGTGCAG,12300 fluorescence intensity (a.u.)
17,GTTTGGACCAAAATGCAATTGTACCCTTTTCTGCCTCTCACGGAGTCACCTAGTGCAG,8340 fluorescence intensity (a.u.)
18,CCGTTTCGAGTTAACCGGCGCGCGTTTTCACCGCGAACTACGGAGTCACCTAGTGCAG,9370 fluorescence intensity (a.u.)
19,CGCCGCCAGCCCTCGTCGTCCGAGCGACCGCCACCGCCACCGGAGTCACCTAGTGCAG,9280 fluorescence intensity (a.u.)
20,CCCTCTCCCTGTCGTCCGCCATCCTTCCAGGGCGTCGCGACGGAGTCACCTAGTGCAG,8880 fluorescence intensity (a.u.)
21,TTGGCGTACCATGTAACTGATGCTATTCTGTTCTTCCTTCCGGAGTCACCTAGTGCAG,8070 fluorescence intensity (a.u.)
22,TGGTTACCTGGAACGCGCGGAGCCAGTCGGGGTCTTCTTCCGGAGTCACCTAGTGCAG,8090 fluorescence intensity (a.u.)
23,CTAGCTATTGGCCAATCCCACTGTCGATCCTTTTGACAAACGGAGTCACCTAGTGCAG,9690 fluorescence intensity (a.u.)
24,ACTCGTTGTTTTTCCTTCTCACTTTTCAACTGCACGAACGCGGAGTCACCTAGTGCAG,10100 fluorescence intensity (a.u.)
25,TGCTGTAGTTGACTTATGGAATATTAAAATGCTGTTAATTCGGAGTCACCTAGTGCAG,8060 fluorescence intensity (a.u.)
26,CATCCGTCGCTTCGCTTTCGTTCGAACGCGTTGGACCCAGCGGAGTCACCTAGTGCAG,8600 fluorescence intensity (a.u.)
27,ACTGTCCACTCACTTTTTCTTCACCCAGGAGACGAAATTTCGGAGTCACCTAGTGCAG,11200 fluorescence intensity (a.u.)

# From PMC7819943, “Rice protein-binding microarrays: a tool to detect cis-acting elements near promoter regions in rice”
